Source: patent US20230047208A1, “RNA Splicing Modulation” (The General Hospital Corporation, priority 2020, published 2023)
The source gives many values for each of these; only a part stands here.

Tested on: wildtype (WT) human fibroblast cell lines
Test: Transcriptome-wide splicing by RNA sequencing (RNASeq), exon triplet PSI change;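 as to Effect: six WT fibroblast lines treated seven days versus DMSO vehicle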;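 as to T-PSI: T-PSI is average treated PSI after seven days of treatment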
Format: cell-based
Parameters: key to Effect: Exclusion; Inclusion; Unchanged
Source text: FIG. 2A provides a representation of an exon triplet. Exon U is upstream of Exon X, which is upstream of Exon D. R1, R2 and R3 represent RNA sequencing (RNASeq) reads spanning the regions between two adjacent exons. UI1, I1X, XI2 and I2D are four regions flanking the four splice sites of the exon-triplet. Each flanking region consists of 25 exonic base pairs and 75 intronic base pairs.
FIG. 2B provides a volcano plot showing the ψ (PSI: Percent Spliced-In) changes in splicing after treatment with Compound (I). Each dot represents one of the 161,097 expressed exon triplets in human fibroblasts. The x axis represents the ψ changes after treatment and the y axis represents the False Discovery Rate (FDR) (log 10 transformed). […] The horizontal dashed line indicates an FDR of 0.1. The dots on the right side of the right vertical dashed line and above the horizontal dashed line represent the exon-triplets with an increase for Exon X inclusion (Δψ≥0.1 and FDR<0.1) while the dots on left side of the left vertical dashed line and above the horizontal dashed line represent an increase for Exon X exclusion (Δψ≤−0.1 and FDR<0.1). Black dots in-between the two vertical dashed lines represent exon-triplets unchanged from the treatment.
In some aspects, analysis is performed on data derived from the assay to measure the magnitude of splicing to determine the amount of exons spliced into an mRNA transcript that is produced in the presence of Compound (I) relative to the amount in the absence of Compound (I) or presence of a negative control. In a preferred aspect, the method utilized is calculation of change in Percent Spliced In (ΔPSI). […] The ΔPSI value is derived from the formula: […]
The values for “a” and “b” represent the number of reads supporting the probability for potential inclusion or exclusion of an exon in an RNA transcript. The “a” value is derived from the number of reads within an exon triplet covering, in 5′ to 3′ order: the last few bases (>1 nucleotide) of an upstream exon operably linked to the first few bases (>1 nucleotide) of a middle exon. The “b” value is derived from the number of reads within an exon triplet covering, in 5′ to 3′ order: the last few bases (>1 nucleotide) of the middle exon operably linked to the first few bases (>1 nucleotide) of a downstream exon. The number of reads will indicate whether the splice junction of a middle exon has been identified as potentially having a CNN Motif(s) by the CNN Model described herein, wherein the inclusion or exclusion of the middle exon may be modulated in the presence of Compound (I) to produce one or more mature RNA isoforms from the gene transcript. The value for “c” represents the number of reads supporting the exclusion of the middle exon.
The effect on splicing modulation and corresponding splice differences toward exon inclusion or exclusion was determined by counting the RNASeq reads covering two splice junctions of exon triplets (three consecutive exons: Exon U, Exon X, Exon D) and the corresponding intervening introns, then comparing the change in Percent Spliced In (ΔPSI or Δψ) of the middle exon (Exon X) after treatment (as shown in FIG. 2A)^52,53. 934 exon triplets were identified showing differential middle exon inclusion or exclusion in response to Compound (I) treatment. Of these, 254 were exon inclusion events (Δψ≥0.1 and FDR<0.1) and 680 were exon exclusion events (Δψ≤−0.1 and FDR<0.1) (as shown in FIG. 2B). […] The splicing results were evaluated by RT-PCR in independent replicate experiments, confirming all the calculated Δψ values. […]

[1] = PLA2G12A Exon 110639839-110639915
[2] = PLA2G12A Exon 110639845-110639915
[3] = PLA2R1 Exon 160833196-160833231
[4] = PLAGL1 Exon 144287295-144287335
[5] = PLAGL1 Exon 144287295-144287349
[6] = PLAGL1 Exon 144287295-144287367
[7] = PLAGL1 Exon 144306272-144306311
[8] = PLSCR4 Exon 145968344-145968424
[9] = PNPLA8 Exon 108161920-108161965
[10] = POLR3GL Exon 145457935-145458003
[11] = RWDD1 Exon 116895221-116895334, seven days
[12] = RWDD2B Exon 30380561-30380628, seven days
[13] = RWDD4 Exon 184572371-184572476, seven days
[14] = RWDD4 Exon 184572371-184572480, seven days
[15] = SBF1 Exon 50895463-50895540, seven days
[16] = SCMH1 Exon 41625397-41625605, seven days
[17] = SCRN3 Exon 175262064-175262132, seven days
[18] = SDCCAG8 Exon 243456701-243456796, seven days
[19] = SEC13 Exon 10360823-10360856, seven days
[20] = SEC31A Exon 83783687-83783725, seven days
[21] = SEC31A Exon 83819142-83819215, seven days
[22] = SEC31B Exon 102249765-102250079, seven days
[23] = SECISBP2L Exon 49311615-49311749, seven days
[24] = SEMA4F Exon 74884980-74885078, seven days
[25] = SENP1 Exon 48460710-48460748, seven days
[26] = SENP6 Exon 76332467-76332574, seven days
[27] = SENP6 Exon 76350400-76350420, seven days
[28] = SENP6 Exon 76350403-76350420, seven days
[29] = SERAC1 Exon 158576347-158576383, seven days
[30] = SETD2 Exon 47122406-47122573, seven days

`Clc1nc(NCc2ccncc2)c2cc[nH]c2n1` [Compound (I), 2-chloro-N-(pyridin-4-ylmethyl)-7H-pyrrolo[2,3-d]pyrimidin-4-amine] was tested, and the ΔPSI (PILRB Exon 99950833-99950893) was −0.264, the Effect (PIN1 Exon 9947499-9947551) was “Inc” and the T-PSI (PIN1 Exon 9947499-9947551) was 0.131. For the same compound, the ΔPSI (PIN1 Exon 9947499-9947551) was 0.107, the Effect (PINX1 Exon 10677703-10677779) was “Unc” and the T-PSI (PINX1 Exon 10677703-10677779) was 0.736. The ΔPSI (PINX1 Exon 10677703-10677779) was 0.010, the Effect (PKIG Exon 43211226-43211372) was “Exc” and the T-PSI (PKIG Exon 43211226-43211372) was 0.417. For the same compound, the ΔPSI (PKIG Exon 43211226-43211372) was −0.152, the Effect [1] was “Exc” and the T-PSI [1] was 0.669. For the same compound, the ΔPSI [1] was −0.308, the Effect [2] was “Exc” and the T-PSI [2] was 0.460. The ΔPSI [2] was −0.480, the Effect [3] was “Exc” and the T-PSI [3] was 0.831. For the same compound, the ΔPSI [3] was −0.122, the Effect [4] was “Exc” and the T-PSI [4] was 0.713. For the same compound, the ΔPSI [4] was −0.225, the Effect [5] was “Exc” and the T-PSI [5] was 0.657. For the same compound, the ΔPSI [5] was −0.261, the Effect [6] was “Exc” and the T-PSI [6] was 0.637. The ΔPSI [6] was −0.272, the Effect [7] was “Exc” and the T-PSI [7] was 0.047. The ΔPSI [7] was −0.187, the Effect (PLBD2 Exon 113822656-113822751) was “Exc” and the T-PSI (PLBD2 Exon 113822656-113822751) was 0.840. For the same compound, the ΔPSI (PLBD2 Exon 113822656-113822751) was −0.148, the Effect (PLD3 Exon 40871460-40871837) was “Unc” and the T-PSI (PLD3 Exon 40871460-40871837) was 0.883. The ΔPSI (PLD3 Exon 40871460-40871837) was −0.007, the Effect (PLD3 Exon 40871625-40871837) was “Unc” and the T-PSI (PLD3 Exon 40871625-40871837) was 0.790. The ΔPSI (PLD3 Exon 40871625-40871837) was −0.008, the Effect [8] was “Unc” and the T-PSI [8] was 0.691. For the same compound, the ΔPSI [8] was −0.009, the Effect (PMS2P3 Exon 75141633-75141745) was “Exc” and the T-PSI (PMS2P3 Exon 75141633-75141745) was 0.700. The ΔPSI (PMS2P3 Exon 75141633-75141745) was −0.232, the Effect [9] was “Inc” and the T-PSI [9] was 0.871. For the same compound, the ΔPSI [9] was 0.170, the Effect (PODNL1 Exon 14046793-14046857) was “Exc” and the T-PSI (PODNL1 Exon 14046793-14046857) was 0.491. The ΔPSI (PODNL1 Exon 14046793-14046857) was −0.154, the Effect [10] was “Exc” and the T-PSI [10] was 0.858. The ΔPSI [10] was −0.118, the Effect [11] was “Inc” and the T-PSI [11] was 0.554. The ΔPSI [11] was 0.263, the Effect [12] was “Exc” and the T-PSI [12] was 0.706. The ΔPSI [12] was −0.147, the Effect [13] was “Exc” and the T-PSI [13] was 0.742. For the same compound, the ΔPSI [13] was −0.221, the Effect [14] was “Exc” and the T-PSI [14] was 0.815. The ΔPSI [14] was −0.162, the Effect [15] was “Exc” and the T-PSI [15] was 0.512. For the same compound, the ΔPSI [15] was −0.156, the Effect [16] was “Exc” and the T-PSI [16] was 0.412. The ΔPSI [16] was −0.180, the Effect [17] was “Unc” and the T-PSI [17] was 0.112. The ΔPSI [17] was 0.005, the Effect [18] was “Inc” and the T-PSI [18] was 0.388. For the same compound, the ΔPSI [18] was 0.234, the Effect [19] was “Unc” and the T-PSI [19] was 0.273. For the same compound, the ΔPSI [19] was 0.005, the Effect [20] was “Unc” and the T-PSI [20] was 0.735. The ΔPSI [20] was −0.003, the Effect [21] was “Unc” and the T-PSI [21] was 0.868. The ΔPSI [21] was −0.004, the Effect [22] was “Exc” and the T-PSI [22] was 0.464. The ΔPSI [22] was −0.319, the Effect [23] was “Exc” and the T-PSI [23] was 0.533. For the same compound, the ΔPSI [23] was −0.201, the Effect [24] was “Exc” and the T-PSI [24] was 0.016. For the same compound, the ΔPSI [24] was −0.286, the Effect [25] was “Exc” and the T-PSI [25] was 0.742. For the same compound, the ΔPSI [25] was −0.218, the Effect [26] was “Exc” and the T-PSI [26] was 0.126. For the same compound, the ΔPSI [26] was −0.101, the Effect [27] was “Exc” and the T-PSI [27] was 0.568. For the same compound, the ΔPSI [27] was −0.140, the Effect [28] was “Exc” and the T-PSI [28] was 0.594. The ΔPSI [28] was −0.123, the Effect [29] was “Exc” and the T-PSI [29] was 0.575. The ΔPSI [29] was −0.208, the Effect [30] was “Unc” and the T-PSI [30] was 0.109. The ΔPSI [30] was −0.002 and the Effect (SETD5 Exon 9476274-9476314, seven days) was “Exc”.
